Among the data in PMC9570212, “PAUF Induces Migration of Human Pancreatic Cancer Cells Exclusively via the TLR4/MyD88/NF-κB Signaling Pathway” (International Journal of Molecular Sciences, 2022) are binding values, retold here.

Sequences of proteins named here, by UniProt entry; tags and fusion partners are left off. Residues count along the entry.
UniProt Q99836: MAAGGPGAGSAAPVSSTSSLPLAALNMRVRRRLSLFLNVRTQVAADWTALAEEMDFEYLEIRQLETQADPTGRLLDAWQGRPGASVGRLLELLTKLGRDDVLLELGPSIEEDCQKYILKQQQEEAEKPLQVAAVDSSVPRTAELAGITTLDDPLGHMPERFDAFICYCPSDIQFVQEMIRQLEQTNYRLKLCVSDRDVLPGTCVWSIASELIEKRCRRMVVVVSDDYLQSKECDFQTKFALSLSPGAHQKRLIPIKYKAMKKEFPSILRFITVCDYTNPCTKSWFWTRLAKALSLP
UniProt O00206, residues 24-839: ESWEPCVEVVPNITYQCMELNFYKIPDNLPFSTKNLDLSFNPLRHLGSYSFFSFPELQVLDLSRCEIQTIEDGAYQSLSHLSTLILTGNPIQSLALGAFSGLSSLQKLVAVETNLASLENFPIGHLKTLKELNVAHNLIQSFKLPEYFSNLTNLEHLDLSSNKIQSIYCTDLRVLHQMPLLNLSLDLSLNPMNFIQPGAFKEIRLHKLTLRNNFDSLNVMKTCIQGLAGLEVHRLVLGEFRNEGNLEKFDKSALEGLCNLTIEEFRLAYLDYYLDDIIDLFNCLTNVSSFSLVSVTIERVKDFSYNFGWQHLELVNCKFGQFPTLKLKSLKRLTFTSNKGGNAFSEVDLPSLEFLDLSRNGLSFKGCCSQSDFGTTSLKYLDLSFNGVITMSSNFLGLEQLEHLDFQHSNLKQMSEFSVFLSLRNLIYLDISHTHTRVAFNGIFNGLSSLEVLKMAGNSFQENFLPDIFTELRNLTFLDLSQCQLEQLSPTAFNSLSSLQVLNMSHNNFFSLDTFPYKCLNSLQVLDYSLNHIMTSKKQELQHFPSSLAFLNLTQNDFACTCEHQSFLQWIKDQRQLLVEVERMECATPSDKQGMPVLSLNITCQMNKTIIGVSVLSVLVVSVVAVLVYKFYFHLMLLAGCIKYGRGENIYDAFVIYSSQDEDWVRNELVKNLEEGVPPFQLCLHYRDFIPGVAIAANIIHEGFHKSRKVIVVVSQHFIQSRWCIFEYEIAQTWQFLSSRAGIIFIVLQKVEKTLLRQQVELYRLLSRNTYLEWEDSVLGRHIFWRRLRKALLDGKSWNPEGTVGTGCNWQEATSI

For experiment [1], the target named is MyD88 (human (endogenous in Panc-1)) (UniProt Q99836). Description: co-IP; Panc-1_Mock and Panc-1_TLR4^OE cells treated with rPAUF (0.1 µg/mL) for 0-120 min; 200 µg lysate protein in IP lysis buffer precipitated with anti-MyD88 or anti-TRIF antibody and protein A agarose; Western blot against TLR4 and MyD88/TRIF.
For experiment [2], the target named is human TLR4 overexpressed in Panc-1 cells (Panc-1_TLR4^OE) (human) (UniProt O00206). Description: proximity ligation; Panc-1_Mock and Panc-1_TLR4^OE cells on coverslips treated with PBS or rPAUF (2 µg/mL) at 4 °C for 30 min, BS3 (2.5 mM) at 4 °C for 45 min, fixed; primary antibodies against PAUF and human TLR4, Duolink PLA probes; only the binder purified.
Experiment [3] has the same target. In words: cross-linking; Panc-1_Mock and Panc-1_TLR4^OE cells incubated with or without rPAUF for 15 min at 37 °C, then membrane-impermeable crosslinker BS3 (2.5 mM) 30 min at room temperature; lysis, SDS-PAGE, Western blot with anti-human TLR4; only the binder purified.

These are yes or no findings as the source states them, for the method shown. In cells and extracts the contact can be indirect. Some binding calls cover weakened binding; strength is not graded here.

For the molecule “human TLR4 overexpressed in Panc-1 cells (Panc-1_TLR4^OE) (from UniProt O00206 24-839) (receptor)”, in experiment [1], the binding result was “binds”.

B1: recombinant pancreatic adenocarcinoma up-regulated factor (PAUF) (ligand, UniProt Q96DA0 17-172, looked up)
chain: GKMYGPGGGKYFSTTEDYDHEITGLRVSVGLLLVKSVQVKLGDSWDVKLGALGGNTQEVTLQPGEYITKVFVAFQAFLRGMVMYTSKDRYFYFGKLDGQISSAYPSQEGQVLVGIYGQYQLLGIKSIGFEWNYPLEEPTTEPPVNLTYSANSPVGR
Turning to B1, the binding entry in experiment [2] and in experiment [3] was “binds” in each case.
